Test results: doi:10.1101/2024.05.06.592854
These are yes or no findings as the source states them, for the method shown. Binding seen in cells or lysates may run through a third protein. Where a sequence is shown, tags or fusion partners need not be part of it.

Biological target: T1, 3xFLAG-NEK1 (NIMA-related kinase 1), expressed in human motor neurons (hsyn-3XFLAG-NEK1 lentivirus) (human) (UniProt Q96PY6)
T1 sequence: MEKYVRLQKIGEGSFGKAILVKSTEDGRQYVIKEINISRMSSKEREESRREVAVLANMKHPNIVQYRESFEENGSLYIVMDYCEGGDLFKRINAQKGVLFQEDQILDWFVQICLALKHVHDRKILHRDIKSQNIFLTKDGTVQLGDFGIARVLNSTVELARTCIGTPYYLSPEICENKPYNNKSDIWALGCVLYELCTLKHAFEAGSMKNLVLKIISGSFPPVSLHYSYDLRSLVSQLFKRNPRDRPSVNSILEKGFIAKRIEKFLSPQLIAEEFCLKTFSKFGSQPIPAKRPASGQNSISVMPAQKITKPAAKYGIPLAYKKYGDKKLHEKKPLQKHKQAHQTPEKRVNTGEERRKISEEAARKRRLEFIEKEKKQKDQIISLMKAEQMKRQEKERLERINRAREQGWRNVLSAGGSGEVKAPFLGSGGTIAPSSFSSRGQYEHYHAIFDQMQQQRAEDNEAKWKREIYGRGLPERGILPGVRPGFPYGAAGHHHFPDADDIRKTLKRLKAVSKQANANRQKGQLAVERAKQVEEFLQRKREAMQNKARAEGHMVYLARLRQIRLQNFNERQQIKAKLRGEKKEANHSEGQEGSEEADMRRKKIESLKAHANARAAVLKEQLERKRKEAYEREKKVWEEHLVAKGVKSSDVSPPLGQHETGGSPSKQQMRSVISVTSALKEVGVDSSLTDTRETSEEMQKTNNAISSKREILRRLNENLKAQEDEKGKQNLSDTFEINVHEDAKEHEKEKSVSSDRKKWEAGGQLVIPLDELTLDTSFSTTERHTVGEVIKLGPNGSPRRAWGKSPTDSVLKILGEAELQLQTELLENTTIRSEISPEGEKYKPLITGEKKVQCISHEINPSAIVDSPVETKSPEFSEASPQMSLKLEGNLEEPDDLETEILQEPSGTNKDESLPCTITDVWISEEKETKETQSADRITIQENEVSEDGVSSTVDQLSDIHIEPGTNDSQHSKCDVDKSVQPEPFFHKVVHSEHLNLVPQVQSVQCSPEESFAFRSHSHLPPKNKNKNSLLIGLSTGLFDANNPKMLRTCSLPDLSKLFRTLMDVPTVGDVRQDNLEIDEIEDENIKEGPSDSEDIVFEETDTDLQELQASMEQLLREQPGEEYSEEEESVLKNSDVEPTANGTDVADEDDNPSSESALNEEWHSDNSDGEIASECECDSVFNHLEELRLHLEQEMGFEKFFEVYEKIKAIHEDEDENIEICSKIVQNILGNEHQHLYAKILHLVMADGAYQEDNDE
Experiment: co-IP

Question: How did the binding turn out when γ-tubulin, motor neurons was run?
Answer: The binding was “no binding”.
